{"source": "PubChem BioAssay AID652243 (Drosophila RNAi Screening Center, 2013)", "aim": "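Fly regulators of androgen-dependent reporter output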 (primary screen)", "cells": "Drosophila S2R+ cells", "reagent": "long dsRNA against Drosophila genes", "timing": "72 h (48 h, then 24 h hormone)", "conditions": "synthetic androgen R1881 at 10 nM for 24 h", "measurement": "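Per-well raw luminescence of the androgen-driven firefly reporter and of the Renilla control, two replicates each, without normalisation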", "direction": "firefly reporter light: higher = more light from androgen-responsive reporter; Renilla control light: higher = more constitutive control signal (cell number, transfection)", "active means": "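Hit when the log firefly-to-Renilla ratio dropped or increased by a fixed fold versus the mean of GFP or LacZ controls across duplicate plates; lowering cut given as 1.5 and as 3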", "calls": "active = hit: reporter lowered or raised; inactive = no hit", "note": "In all, the deposit lists about 24,000 reagents; below is an unselected part of those that have a named target and a result. Over the whole deposit, 246 (1%) got an active call. 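Plates not normalised; calls are printed but the firefly/Renilla ratio behind them is not deposited; fold cut for lowering reported inconsistently.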 Raw values vary from plate to plate and are shown uncorrected. The record does not give: the amount of reagent."}
{"gene knocked down": "CG5157", "amplicon": "DRSC10488", "firefly reporter light, replicate 1": 1.62e5, "firefly reporter light, replicate 2": 1.69e5, "Renilla control light, replicate 1": 1.80e6, "Renilla control light, replicate 2": 1.58e6, "outcome": "inactive"}
{"gene knocked down": "CG5157", "amplicon": "DRSC27474", "firefly reporter light, replicate 1": 8.38e5, "firefly reporter light, replicate 2": 8.17e5, "Renilla control light, replicate 1": 1.23e6, "Renilla control light, replicate 2": 9.50e5, "outcome": "inactive"}
{"gene knocked down": "CG5157", "amplicon": "DRSC39055", "firefly reporter light, replicate 1": 7.61e5, "firefly reporter light, replicate 2": 5.93e5, "Renilla control light, replicate 1": 2.48e6, "Renilla control light, replicate 2": 2.40e6, "outcome": "inactive"}
{"gene knocked down": "kcc (kazachoc)", "amplicon": "DRSC04316", "firefly reporter light, replicate 1": 1.09e6, "firefly reporter light, replicate 2": 6.59e5, "Renilla control light, replicate 1": 2.24e6, "Renilla control light, replicate 2": 1.17e6, "outcome": "inactive"}
{"gene knocked down": "kcc (kazachoc)", "amplicon": "DRSC04516", "firefly reporter light, replicate 1": 4.09e5, "firefly reporter light, replicate 2": 4.82e5, "Renilla control light, replicate 1": 1.75e6, "Renilla control light, replicate 2": 1.65e6, "outcome": "inactive"}
{"gene knocked down": "Vha68-3 (Vacuolar H[+] ATPase 68kD subunit 3)", "amplicon": "DRSC02809", "firefly reporter light, replicate 1": 2.14e5, "firefly reporter light, replicate 2": 2.37e5, "Renilla control light, replicate 1": 1.50e6, "Renilla control light, replicate 2": 1.64e6, "outcome": "inactive"}
{"gene knocked down": "Vha68-3 (Vacuolar H[+] ATPase 68kD subunit 3)", "amplicon": "DRSC25742", "firefly reporter light, replicate 1": 8.88e5, "firefly reporter light, replicate 2": 9.87e5, "Renilla control light, replicate 1": 7.31e5, "Renilla control light, replicate 2": 9.89e5, "outcome": "inactive"}
{"gene knocked down": "CG4462", "amplicon": "DRSC15583", "firefly reporter light, replicate 1": 51436, "firefly reporter light, replicate 2": 59335, "Renilla control light, replicate 1": 6.10e5, "Renilla control light, replicate 2": 6.05e5, "outcome": "inactive"}
{"gene knocked down": "CG4462", "amplicon": "DRSC25650", "firefly reporter light, replicate 1": 5.00e5, "firefly reporter light, replicate 2": 9.89e5, "Renilla control light, replicate 1": 7.56e5, "Renilla control light, replicate 2": 9.36e5, "outcome": "inactive"}
{"gene knocked down": "Las (Lipoic acid synthase)", "amplicon": "DRSC11772", "firefly reporter light, replicate 1": 28960, "firefly reporter light, replicate 2": 10849, "Renilla control light, replicate 1": 2.31e5, "Renilla control light, replicate 2": 1.95e5, "outcome": "inactive"}
{"gene knocked down": "Las (Lipoic acid synthase)", "amplicon": "DRSC26539", "firefly reporter light, replicate 1": 4.46e5, "firefly reporter light, replicate 2": 4.38e5, "Renilla control light, replicate 1": 5.06e5, "Renilla control light, replicate 2": 3.49e5, "outcome": "inactive"}
{"gene knocked down": "Dyrk2 (Dual-specificity tyrosine phosphorylation-regulated kinase 2)", "amplicon": "DRSC03610", "firefly reporter light, replicate 1": 8.37e5, "firefly reporter light, replicate 2": 9.18e5, "Renilla control light, replicate 1": 1.63e6, "Renilla control light, replicate 2": 1.73e6, "outcome": "inactive"}
{"gene knocked down": "Dyrk2 (Dual-specificity tyrosine phosphorylation-regulated kinase 2)", "amplicon": "DRSC29029", "firefly reporter light, replicate 1": 2.06e5, "firefly reporter light, replicate 2": 2.43e5, "Renilla control light, replicate 1": 6.02e5, "Renilla control light, replicate 2": 3.80e5, "outcome": "inactive"}
{"gene knocked down": "Dyrk2 (Dual-specificity tyrosine phosphorylation-regulated kinase 2)", "amplicon": "DRSC36717", "outcome": "inactive"}
